According to paper PMC8789055, “Structural and biochemical characterization of human Schlafen 5”:
Results are given in words; binding and its absence hold for the method and conditions named.

B1: human SLFN5 N-terminal core domain (SLFN5 1-336) (domain or fragment, UniProt Q08AF3 1-336)
chain: MSLRIDVDTNFPECVVDAGKVTLGTQQRQEMDPRLREKQNEIILRAVCALLNSGGGIIKAEIENKGYNYERHGVGLDVPPIFRSHLDKMQKENHFLIFVKSWNTEAGVPLATLCSNLYHRERTSTDVMDSQEALAFLKCRTQTPTNINVSNSLGPQAAQGSVQYEGNINVSAAALFDRKRLQYLEKLNLPESTHVEFVMFSTDVSHCVKDRLPKCVSAFANTEGGYVFFGVHDETCQVIGCEKEKIDLTSLRASIDGCIKKLPVHHFCTQRPEIKYVLNFLEVHDKGALRGYVCAIKVEKFCCAVFAKVPSSWQVKDNRVRQLPTREWTAWMMEAD
B2: full-length human Schlafen 5 (SLFN5) (protein, UniProt Q08AF3 1-891)
chain: MSLRIDVDTNFPECVVDAGKVTLGTQQRQEMDPRLREKQNEIILRAVCALLNSGGGIIKAEIENKGYNYERHGVGLDVPPIFRSHLDKMQKENHFLIFVKSWNTEAGVPLATLCSNLYHRERTSTDVMDSQEALAFLKCRTQTPTNINVSNSLGPQAAQGSVQYEGNINVSAAALFDRKRLQYLEKLNLPESTHVEFVMFSTDVSHCVKDRLPKCVSAFANTEGGYVFFGVHDETCQVIGCEKEKIDLTSLRASIDGCIKKLPVHHFCTQRPEIKYVLNFLEVHDKGALRGYVCAIKVEKFCCAVFAKVPSSWQVKDNRVRQLPTREWTAWMMEADPDLSRCPEMVLQLSLSSATPRSKPVCIHKNSECLKEQQKRYFPVFSDRVVYTPESLYKELFSQHKGLRDLINTEMRPFSQGILIFSQSWAVDLGLQEKQGVICDALLISQNNTPILYTIFSKWDAGCKGYSMIVAYSLKQKLVNKGGYTGRLCITPLVCVLNSDRKAQSVYSSYLQIYPESYNFMTPQHMEALLQSLVIVLLGFKSFLSEELGSEVLNLLTNKQYELLSKNLRKTRELFVHGLPGSGKTILALRIMEKIRNVFHCEPANILYICENQPLKKLVSFSKKNICQPVTRKTFMKNNFEHIQHIIIDDAQNFRTEDGDWYGKAKFITQTARDGPGVLWIFLDYFQTYHLSCSGLPPPSDQYPREEINRVVRNAGPIANYLQQVMQEARQNPPPNLPPGSLVMLYEPKWAQGVPGNLEIIEDLNLEEILIYVANKCRFLLRNGYSPKDIAVLFTKASEVEKYKDRLLTAMRKRKLSQLHEESDLLLQIGDASDVLTDHIVLDSVCRFSGLERNIVFGINPGVAPPAGAYNLLLCLASRAKRHLYILKASV

Legend:
[1] = target: human SLFN5 N-terminal core domain (SLFN5 1-336) (human) (UniProt Q08AF3); assay: SEC-coupled right-angle light scattering (RALS); Superdex 200 10/300 Increase column coupled to a right-angle laser static light scattering device and refractive index detector; calibrated with BSA; both purified
[2] = target: full-length human Schlafen 5 (SLFN5) (human) (UniProt Q08AF3); assay: SEC; analytical size exclusion chromatography of purified full-length SLFN5; single peak; both purified

Row | Binder | binding [1] | binding [2]
1 | B1 | no binding | 
2 | B2 |  | no binding
